{"sequences": {"note": "Chains of the proteins cited; added tags and fusions are not shown.", "UniProt O95613": "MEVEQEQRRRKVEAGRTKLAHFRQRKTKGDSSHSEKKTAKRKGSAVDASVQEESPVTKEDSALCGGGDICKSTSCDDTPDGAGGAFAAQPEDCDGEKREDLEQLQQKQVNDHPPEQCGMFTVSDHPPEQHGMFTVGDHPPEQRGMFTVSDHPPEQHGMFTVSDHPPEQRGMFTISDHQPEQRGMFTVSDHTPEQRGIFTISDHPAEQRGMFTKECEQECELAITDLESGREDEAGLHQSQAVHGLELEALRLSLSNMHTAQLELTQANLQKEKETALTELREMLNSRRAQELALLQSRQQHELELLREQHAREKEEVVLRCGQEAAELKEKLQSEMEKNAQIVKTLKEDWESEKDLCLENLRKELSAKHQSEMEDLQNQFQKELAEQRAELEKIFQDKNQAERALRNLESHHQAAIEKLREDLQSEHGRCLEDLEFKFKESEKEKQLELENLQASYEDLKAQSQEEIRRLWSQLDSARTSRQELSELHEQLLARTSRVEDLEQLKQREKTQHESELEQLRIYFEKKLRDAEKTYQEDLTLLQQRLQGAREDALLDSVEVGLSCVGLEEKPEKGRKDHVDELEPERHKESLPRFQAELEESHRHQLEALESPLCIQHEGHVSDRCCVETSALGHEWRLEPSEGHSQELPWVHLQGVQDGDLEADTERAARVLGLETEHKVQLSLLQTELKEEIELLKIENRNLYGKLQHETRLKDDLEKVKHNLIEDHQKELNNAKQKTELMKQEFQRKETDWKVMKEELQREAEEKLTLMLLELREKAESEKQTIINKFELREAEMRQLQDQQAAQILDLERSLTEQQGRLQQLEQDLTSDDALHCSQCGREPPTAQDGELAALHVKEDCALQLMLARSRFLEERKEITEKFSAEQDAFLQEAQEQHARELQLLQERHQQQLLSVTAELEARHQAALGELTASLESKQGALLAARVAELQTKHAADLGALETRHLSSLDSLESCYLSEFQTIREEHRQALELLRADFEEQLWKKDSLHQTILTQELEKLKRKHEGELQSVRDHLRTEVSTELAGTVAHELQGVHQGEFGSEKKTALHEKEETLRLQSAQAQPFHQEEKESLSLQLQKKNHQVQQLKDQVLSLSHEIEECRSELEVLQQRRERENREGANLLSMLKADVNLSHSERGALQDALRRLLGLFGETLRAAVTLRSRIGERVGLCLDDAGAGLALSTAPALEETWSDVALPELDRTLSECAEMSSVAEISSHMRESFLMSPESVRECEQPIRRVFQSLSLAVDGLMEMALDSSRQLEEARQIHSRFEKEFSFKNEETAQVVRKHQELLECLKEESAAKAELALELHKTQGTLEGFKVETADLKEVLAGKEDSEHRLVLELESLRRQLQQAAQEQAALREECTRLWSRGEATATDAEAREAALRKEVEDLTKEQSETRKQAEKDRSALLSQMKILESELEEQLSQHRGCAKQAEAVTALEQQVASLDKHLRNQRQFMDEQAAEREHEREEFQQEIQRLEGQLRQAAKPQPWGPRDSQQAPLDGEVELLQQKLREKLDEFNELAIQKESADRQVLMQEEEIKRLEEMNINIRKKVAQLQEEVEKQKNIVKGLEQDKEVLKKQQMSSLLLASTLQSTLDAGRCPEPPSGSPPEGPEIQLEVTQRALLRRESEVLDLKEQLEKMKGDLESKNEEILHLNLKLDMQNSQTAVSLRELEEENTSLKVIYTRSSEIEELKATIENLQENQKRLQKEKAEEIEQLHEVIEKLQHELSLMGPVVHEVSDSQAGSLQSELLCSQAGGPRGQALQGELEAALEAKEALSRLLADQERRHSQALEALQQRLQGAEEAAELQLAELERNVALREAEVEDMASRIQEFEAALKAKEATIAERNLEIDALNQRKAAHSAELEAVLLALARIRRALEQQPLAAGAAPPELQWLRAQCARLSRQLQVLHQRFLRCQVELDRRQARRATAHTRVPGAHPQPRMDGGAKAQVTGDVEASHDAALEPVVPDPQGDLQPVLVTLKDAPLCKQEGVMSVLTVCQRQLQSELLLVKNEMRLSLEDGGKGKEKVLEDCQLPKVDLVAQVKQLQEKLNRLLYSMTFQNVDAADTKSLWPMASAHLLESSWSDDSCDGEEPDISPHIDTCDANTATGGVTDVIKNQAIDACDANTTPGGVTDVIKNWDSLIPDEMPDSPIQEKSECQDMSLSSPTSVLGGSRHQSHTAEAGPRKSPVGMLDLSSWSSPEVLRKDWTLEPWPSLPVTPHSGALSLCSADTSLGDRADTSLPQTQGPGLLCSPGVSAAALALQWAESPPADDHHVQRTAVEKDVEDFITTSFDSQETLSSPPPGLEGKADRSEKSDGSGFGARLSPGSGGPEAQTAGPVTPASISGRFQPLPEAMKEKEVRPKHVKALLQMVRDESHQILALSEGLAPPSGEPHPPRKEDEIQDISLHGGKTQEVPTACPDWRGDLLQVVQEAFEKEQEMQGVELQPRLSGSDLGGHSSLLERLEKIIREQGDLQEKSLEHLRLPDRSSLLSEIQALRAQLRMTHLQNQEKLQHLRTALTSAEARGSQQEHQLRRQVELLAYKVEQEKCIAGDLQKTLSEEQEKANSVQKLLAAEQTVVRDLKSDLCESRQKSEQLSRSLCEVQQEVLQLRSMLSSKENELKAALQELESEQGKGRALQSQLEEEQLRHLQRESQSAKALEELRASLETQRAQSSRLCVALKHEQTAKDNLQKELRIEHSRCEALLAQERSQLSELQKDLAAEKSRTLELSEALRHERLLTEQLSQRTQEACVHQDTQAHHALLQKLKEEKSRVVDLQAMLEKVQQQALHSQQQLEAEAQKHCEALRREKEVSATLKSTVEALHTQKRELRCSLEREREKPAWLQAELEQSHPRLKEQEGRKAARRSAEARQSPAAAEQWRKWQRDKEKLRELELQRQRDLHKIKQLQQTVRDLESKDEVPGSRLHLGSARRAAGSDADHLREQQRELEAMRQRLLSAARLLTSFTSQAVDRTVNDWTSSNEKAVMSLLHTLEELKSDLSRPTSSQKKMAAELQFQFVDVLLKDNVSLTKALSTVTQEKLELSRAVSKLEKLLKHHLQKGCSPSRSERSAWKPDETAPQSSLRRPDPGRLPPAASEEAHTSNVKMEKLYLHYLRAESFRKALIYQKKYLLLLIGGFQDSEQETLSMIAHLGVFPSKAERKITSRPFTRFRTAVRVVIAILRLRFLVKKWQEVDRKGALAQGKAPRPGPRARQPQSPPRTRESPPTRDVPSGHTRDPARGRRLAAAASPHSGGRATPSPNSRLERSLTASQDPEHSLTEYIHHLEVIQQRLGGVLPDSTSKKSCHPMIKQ", "UniProt P08670": "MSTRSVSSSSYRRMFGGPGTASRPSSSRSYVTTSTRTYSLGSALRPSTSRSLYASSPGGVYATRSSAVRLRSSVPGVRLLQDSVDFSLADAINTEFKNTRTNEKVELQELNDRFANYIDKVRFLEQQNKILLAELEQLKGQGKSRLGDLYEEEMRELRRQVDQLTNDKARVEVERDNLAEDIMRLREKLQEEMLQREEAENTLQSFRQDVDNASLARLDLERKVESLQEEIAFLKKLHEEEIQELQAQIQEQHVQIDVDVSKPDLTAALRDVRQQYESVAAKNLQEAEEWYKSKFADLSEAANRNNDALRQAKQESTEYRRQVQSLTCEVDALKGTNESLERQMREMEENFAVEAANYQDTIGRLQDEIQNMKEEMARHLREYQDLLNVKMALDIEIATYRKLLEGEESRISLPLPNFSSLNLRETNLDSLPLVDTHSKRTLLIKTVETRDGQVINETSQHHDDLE", "UniProt Q9UKK3": "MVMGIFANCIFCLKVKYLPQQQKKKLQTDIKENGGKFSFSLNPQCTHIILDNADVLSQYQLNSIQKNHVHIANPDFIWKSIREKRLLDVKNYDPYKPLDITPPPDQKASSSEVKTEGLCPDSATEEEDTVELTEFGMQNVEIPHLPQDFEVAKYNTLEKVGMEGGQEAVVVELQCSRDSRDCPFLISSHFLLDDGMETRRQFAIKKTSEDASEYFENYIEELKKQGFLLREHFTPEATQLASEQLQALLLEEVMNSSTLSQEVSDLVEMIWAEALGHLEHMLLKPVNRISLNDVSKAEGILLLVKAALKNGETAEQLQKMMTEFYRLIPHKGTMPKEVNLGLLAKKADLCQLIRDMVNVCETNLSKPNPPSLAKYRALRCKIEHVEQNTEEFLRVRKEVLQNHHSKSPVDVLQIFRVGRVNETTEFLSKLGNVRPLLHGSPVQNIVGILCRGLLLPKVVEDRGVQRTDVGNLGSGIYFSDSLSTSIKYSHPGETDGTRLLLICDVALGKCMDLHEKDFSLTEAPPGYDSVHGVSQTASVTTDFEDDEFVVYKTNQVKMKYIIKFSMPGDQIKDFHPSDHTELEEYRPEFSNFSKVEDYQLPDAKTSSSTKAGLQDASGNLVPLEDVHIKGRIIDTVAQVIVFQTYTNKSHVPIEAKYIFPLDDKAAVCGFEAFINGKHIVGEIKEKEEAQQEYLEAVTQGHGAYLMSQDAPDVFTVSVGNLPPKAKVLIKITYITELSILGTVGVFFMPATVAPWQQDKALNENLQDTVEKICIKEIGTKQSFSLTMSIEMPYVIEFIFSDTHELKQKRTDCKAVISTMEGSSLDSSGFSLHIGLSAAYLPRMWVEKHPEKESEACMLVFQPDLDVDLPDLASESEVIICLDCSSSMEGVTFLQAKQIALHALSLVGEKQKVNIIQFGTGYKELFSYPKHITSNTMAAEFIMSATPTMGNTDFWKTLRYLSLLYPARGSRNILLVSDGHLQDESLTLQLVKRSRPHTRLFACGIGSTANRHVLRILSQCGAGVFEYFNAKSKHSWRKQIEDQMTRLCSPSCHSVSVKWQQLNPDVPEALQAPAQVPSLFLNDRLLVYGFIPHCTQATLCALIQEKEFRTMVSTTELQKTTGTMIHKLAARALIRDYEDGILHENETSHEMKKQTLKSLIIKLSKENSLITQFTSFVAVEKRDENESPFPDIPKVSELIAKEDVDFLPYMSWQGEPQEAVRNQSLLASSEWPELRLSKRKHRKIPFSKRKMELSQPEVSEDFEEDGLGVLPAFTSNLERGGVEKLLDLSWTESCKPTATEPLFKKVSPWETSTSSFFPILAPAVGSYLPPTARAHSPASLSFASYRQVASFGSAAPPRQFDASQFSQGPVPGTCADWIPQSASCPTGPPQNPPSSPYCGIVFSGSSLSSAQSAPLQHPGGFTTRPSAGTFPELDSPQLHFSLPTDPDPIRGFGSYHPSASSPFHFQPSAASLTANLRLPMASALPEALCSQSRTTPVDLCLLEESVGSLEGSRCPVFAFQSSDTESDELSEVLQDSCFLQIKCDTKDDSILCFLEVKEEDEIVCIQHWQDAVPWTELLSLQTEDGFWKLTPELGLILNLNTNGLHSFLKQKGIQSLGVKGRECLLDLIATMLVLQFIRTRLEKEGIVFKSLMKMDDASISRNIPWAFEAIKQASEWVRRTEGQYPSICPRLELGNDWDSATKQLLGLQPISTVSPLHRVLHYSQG", "UniProt Q14764": "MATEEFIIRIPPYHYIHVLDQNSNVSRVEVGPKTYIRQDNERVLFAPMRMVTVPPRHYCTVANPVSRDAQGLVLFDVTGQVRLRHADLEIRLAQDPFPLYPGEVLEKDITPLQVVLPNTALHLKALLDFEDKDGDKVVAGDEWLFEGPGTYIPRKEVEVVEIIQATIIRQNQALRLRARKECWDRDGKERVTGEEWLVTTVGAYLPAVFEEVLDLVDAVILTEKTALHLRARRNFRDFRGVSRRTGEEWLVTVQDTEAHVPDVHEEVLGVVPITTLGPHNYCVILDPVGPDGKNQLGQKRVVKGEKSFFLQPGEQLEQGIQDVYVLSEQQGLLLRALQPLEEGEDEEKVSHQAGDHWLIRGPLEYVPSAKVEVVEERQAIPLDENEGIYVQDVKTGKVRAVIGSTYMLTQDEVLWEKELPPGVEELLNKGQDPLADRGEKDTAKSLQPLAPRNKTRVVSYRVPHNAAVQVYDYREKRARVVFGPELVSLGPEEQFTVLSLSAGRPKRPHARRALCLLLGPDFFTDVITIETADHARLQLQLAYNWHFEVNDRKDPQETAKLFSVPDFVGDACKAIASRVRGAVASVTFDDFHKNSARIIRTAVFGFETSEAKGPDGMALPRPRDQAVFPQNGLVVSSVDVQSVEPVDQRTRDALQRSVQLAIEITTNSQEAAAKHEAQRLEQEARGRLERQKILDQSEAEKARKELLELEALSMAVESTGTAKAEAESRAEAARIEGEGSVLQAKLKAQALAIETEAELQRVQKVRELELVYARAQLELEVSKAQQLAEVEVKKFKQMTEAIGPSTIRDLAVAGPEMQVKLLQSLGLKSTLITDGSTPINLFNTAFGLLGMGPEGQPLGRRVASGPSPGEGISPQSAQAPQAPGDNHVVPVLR"}, "source": "paper PMC11265163", "experiment_in_all_cases": "co-IP; endogenous proteins in whole-cell lysates (iSAEC-K; also A549, A611, A563, A653); lysis in 10 mM Tris-HCl pH 7.5, 150 mM NaCl, 0.5% NP-40, 0.25% sodium deoxycholate, 0.5 mM EDTA with 2 mM MgCl2 and 50 units/mL benzonase; 1 mg protein, 4 ug antibody overnight, Protein A/G Dynabeads …", "key": {"[1]": {"molecular_target": "T1, keratin 18 (KRT18) (human (endogenous in iSAEC-K)) (UniProt P05783)", "T1 sequence": "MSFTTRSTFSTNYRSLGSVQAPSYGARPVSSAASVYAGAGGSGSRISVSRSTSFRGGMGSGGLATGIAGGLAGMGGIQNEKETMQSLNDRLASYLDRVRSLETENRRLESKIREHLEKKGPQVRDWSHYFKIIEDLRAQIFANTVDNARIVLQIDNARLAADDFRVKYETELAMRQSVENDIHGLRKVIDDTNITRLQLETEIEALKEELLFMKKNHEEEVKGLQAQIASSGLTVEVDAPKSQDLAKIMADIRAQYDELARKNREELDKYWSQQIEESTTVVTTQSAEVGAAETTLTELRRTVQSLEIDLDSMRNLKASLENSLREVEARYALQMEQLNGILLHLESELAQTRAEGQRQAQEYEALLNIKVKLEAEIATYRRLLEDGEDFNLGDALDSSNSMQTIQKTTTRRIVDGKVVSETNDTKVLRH"}, "[2]": {"molecular_target": "pericentrin (PCNT) (human (endogenous in iSAEC-K)) (UniProt O95613)"}, "[3]": {"molecular_target": "pericentriolar material 1 protein (PCM1) (human (endogenous in iSAEC-K)) (UniProt Q15154)"}, "[4]": {"molecular_target": "vimentin (VIM) (human (endogenous in iSAEC-K)) (UniProt P08670)"}, "[5]": {"molecular_target": "PARP4 (human (endogenous in iSAEC-K, A549 and patient-derived lung cell lines)) (UniProt Q9UKK3)"}}, "note": "No constants are given. Whether binding was seen depends on the method and setting. Binding seen in cells or lysates may run through a third protein. Some binding calls cover weakened binding; strength is not graded here.", "data": [{"substance": "PARP4 (from UniProt Q9UKK3 1-1724)", "values": [{"measurement": "binding", "setting": "[1]", "result": "binds"}, {"measurement": "binding", "setting": "[2]", "result": "binds"}, {"measurement": "binding", "setting": "[3]", "result": "binds"}, {"measurement": "binding", "setting": "[4]", "result": "binds"}]}, {"substance": "major vault protein (MVP) (from UniProt Q14764 1-893)", "values": [{"measurement": "binding", "setting": "[5]", "result": "binds"}]}]}
